Drawing on publication PMC7026641, “Identification of the 3-amino-3-carboxypropyl (acp) transferase enzyme responsible for acp^3U formation at position 47 in Escherichia coli tRNAs” (Nucleic Acids Research, 2019), this text covers binding for 1 molecule.

For this assay, the target named is Escherichia coli YfiP with a C-terminal hexahistidine tag (Escherichia coli) (UniProt Q47319). Nature of the assay: SEC; analytical gel filtration of purified YfiP-His6; conditions of the analytical run not told in the main text (Supplementary Figure S2); both purified.

These are yes or no findings as the source states them, for the method shown. Tags and fused reporters may be left off the sequences shown.

B1: Escherichia coli YfiP with a C-terminal hexahistidine tag (enzyme, UniProt Q47319 1-232)
chain: MTENAVLQLRAERIARATRPFLARGNRVRRCQRCLLPEKLCLCSTITPAQAKSRFCLLMFDTEPMKPSNTGRLIADILPDTVAFQWSRTEPSQDLLELVQNPDYQPMVVFPASYADEQREVIFTPPAGKPPLFIMLDGTWPEARKMFRKSPYLDNLPVISVDLSRLSAYRLREAQAEGQYCTAEVAIALLDMAGDTGAAAGLGEHFTRFKTRYLAGKTQHLGSITAEQLESV
In the case of B1, the binding entry is on record as “no binding”.
